Measured values published in US11980774B2, “Illumination devices and related methods for phototherapeutic light treatments in the presence of vitamins” (priority 2021, dated 2024).
At least one compound was matched to its structure with a doubt left.

System: MERS-CoV
Type: cell-based
Conditions: various amounts of ascorbate with 1 μM riboflavin; 425 nm light; FIG. 4B

O=C1O[C@H]([C@@H](O)CO)C(O)=C1O [ascorbate]
influence of amount of ascorbate on MERS-CoV viral load reduction: did not show notable differences
